PubChem BioAssay AID720505 | Drosophila RNAi Screening Center, 2013

Screen: 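Genes needed for store-operated calcium entry in fly cells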 (primary screen)
Cells: Drosophila S2R+ cells
Reagent: long dsRNA against Drosophila genes
Conditions: thapsigargin (2 µM) in calcium-free buffer to empty internal stores, then 2 mM calcium added back
Detection: 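Fluo-4 signal in 384-well plates read on a FLIPR after thapsigargin (2 µM, calcium-free) store depletion and 2 mM calcium add-back; unnormalised mean endpoint per well; screen run twice, selected wells retested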
Direction: calcium signal and retest calcium signal: higher = more calcium entry after store depletion
Hit rule: 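About 1500 genes called as lowering calcium entry, by varying amounts, judged against per-plate control wells with STIM1 as positive and Rho1 as negative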
Calls: active = called as lowering calcium entry; inactive = not called
In all, the deposit lists about 20,000 reagents; this is an unselected part of those that have a named target and a result. In the full data, about 2,100 (10%) are marked active. 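Raw plate signals without normalisation; calls rest on control-based scores that were not deposited; replicate 2 separates called from uncalled poorly.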 Entries without a mark were called inactive. A plus sign joins genes that one reagent is predicted to hit. Not stated in the record: the amount of reagent, the time to read-out.

Target gene | dsRNA | calcium signal, replicate 1 | calcium signal, replicate 2 | retest calcium signal, replicate 1 | retest calcium signal, replicate 2
CG33259 | DRSC10854 | 62.8 | 154 | – | –
Or85d | DRSC16767 | 110 | 122 | – | –
Upf2 | DRSC18218 | 195 | 74.4 | – | –
CG15579 | DRSC18067 | 288 | 172 | – | –
CG31752 | DRSC22599 | 132 | 193 | – | –
Cdc2rk | DRSC07590 | 91.2 | 99.4 | – | –
yellow-e2 | DRSC15169 | 83.4 | 134 | – | –
Obp99d | DRSC15046 | 187 | 154 | – | –
CG14628 | DRSC18626 | 92.1 | 113 | – | –
dpr18 | DRSC19606 | 76.8 (active) | 97.2 | – | –
Slc45-1 | DRSC10427 | 94 | 80 | – | –
CG15208 | DRSC19654 | 103 | 94.3 | – | –
CG1791 | DRSC18141 | 96.1 | 93.2 | – | –
CG33095 | DRSC14441 | 203 | 157 | – | –
Naa20A | DRSC19579 | 85.2 | 93.3 | – | –
CG13056 | DRSC09937 | 81.7 | 165 | – | –
CG34033 | DRSC05190 | 138 | 126 | – | –
CG14314 | DRSC14793 | 224 | 188 | – | –

Continued; the last 5 above are carried over.
Target gene | dsRNA | calcium signal, replicate 1 | calcium signal, replicate 2 | retest calcium signal, replicate 1 | retest calcium signal, replicate 2
CG33095 | DRSC14441 | 203 | 157 | – | –
Naa20A | DRSC19579 | 85.2 | 93.3 | – | –
CG13056 | DRSC09937 | 81.7 | 165 | – | –
CG34033 | DRSC05190 | 138 | 126 | – | –
CG14314 | DRSC14793 | 224 | 188 | – | –
CG18787 + CG18789 | DRSC02698 | 81.7 | 114 | – | –
CG9581 | DRSC20695 | 139 | 125 | 87.3 | 93.2
CG9581 | DRSC22247 | 105 | 142 | – | –
CG5653 | DRSC10534 | 118 | 56.5 | – | –
Vha16-4 | DRSC07321 | 213 | 99.3 | – | –
Lcp65Ab2 + Lcp65Ab1 | DRSC10340 | 127 | 117 | – | –
Lcp65Ab2 + Lcp65Ab1 | DRSC10343 | 131 | 99.5 | – | –
CG7650 | DRSC10898 | 148 | 165 | 116 | 100
Oga | DRSC15901 | 207 | 301 | – | –
Hr78 | DRSC11866 | 102 | 81.4 | – | –
YL-1 | DRSC02765 | 162 | 122 | – | –
iPLA2-VIA | DRSC10699 | 58.4 (active) | 68.3 | – | –
CG13325 | DRSC06362 | 137 | 116 | – | –
ebi | DRSC00816 | 93.7 | 169 | – | –
CG11694 | DRSC14354 | 80.1 | 140 | – | –
Klp67A + CG34456 | DRSC10420 | 83.1 | 83.5 | – | –
eIF1A | DRSC16937 | 133 | 123 | – | –
CG14662 + asRNA:CR43478 | DRSC12248 | 108 | 104 | – | –
sol | DRSC20587 | 90.9 | 116 | – | –
CR31700 | DRSC03682 | 73.7 | 5281 | – | –
Ip259 | DRSC03352 | 71.5 | 126 | – | –
Ser12 | DRSC00786 | 103 | 153 | – | –
CG15880 | DRSC00474 | 128 | 163 | – | –
CG43901 | DRSC19397 | 50.5 (active) | 99.6 | – | –
CG43901 | DRSC19652 | 70 (active) | 107 | – | –
CG43901 | DRSC19653 | 65.3 (active) | 122 | 5823 | 83
CG43901 | DRSC22791 | 75.9 | 95.2 | – | –
sev | DRSC20372 | 152 | 86.2 | – | –
CG15711 | DRSC06582 | 174 | 188 | – | –
CG13031 | DRSC09911 | 117 | 161 | – | –
CG4009 | DRSC15536 | 154 | 244 | – | –
Gr36b | DRSC21637 | 171 | 119 | – | –
CG13398 | DRSC02268 | 165 | 145 | – | –
CG31909 | DRSC22180 | 106 | 233 | – | –
CG15696 | DRSC15118 | 254 | 118 | – | –
ced-6 | DRSC07591 | 61.1 (active) | 61.7 | 161 | 126
Cubn2 | DRSC10561 | 93 | 89.7 | – | –
Cubn2 | DRSC22044 | 117 | 206 | – | –
